These are yes or no findings as the source states them, for the method shown. In cells and extracts the contact can be indirect. Here binding means that the protein was enriched with, or labelled near, the bait; the list need not be complete. Tags and fused reporters may be left off the sequences shown.
B1: NDE1, endogenous (protein, UniProt Q9NXR1 1-335)
chain: MEDSGKTFSSEEEEANYWKDLAMTYKQRAENTQEELREFQEGSREYEAELETQLQQIETRNRDLLSENNRLRMELETIKEKFEVQHSEGYRQISALEDDLAQTKAIKDQLQKYIRELEQANDDLERAKRATIMSLEDFEQRLNQAIERNAFLESELDEKENLLESVQRLKDEARDLRQELAVQQKQEKPRTPMPSSVEAERTDTAVQATGSVPSTPIAHRGPSSSLNTPGSFRRGLDDSTGGTPLTPAARISALNIVGDLLRKVGALESKLASCRNLVYDQSPNRTGGPASGRSSKNRDGGERRPSSTSVPLGDKGLDTSCRWLSKSTTRSSSSC
B2: TNPO2, endogenous (protein, UniProt O14787 1-897)
chain: MDWQPDEQGLQQVLQLLKDSQSPNTATQRIVQDKLKQLNQFPDFNNYLIFVLTRLKSEDEPTRSLSGLILKNNVKAHYQSFPPPVADFIKQECLNNIGDASSLIRATIGILITTIASKGELQMWPELLPQLCNLLNSEDYNTCEGAFGALQKICEDSSELLDSDALNRPLNIMIPKFLQFFKHCSPKIRSHAIACVNQFIMDRAQALMDNIDTFIEHLFALAVDDDPEVRKNVCRALVMLLEVRIDRLIPHMHSIIQYMLQRTQDHDENVALEACEFWLTLAEQPICKEVLASHLVQLIPILVNGMKYSEIDIILLKGDVEEDEAVPDSEQDIKPRFHKSRTVTLPHEAERPDGSEDAEDDDDDDALSDWNLRKCSAAALDVLANVFREELLPHLLPLLKGLLFHPEWVVKESGILVLGAIAEGCMQGMVPYLPELIPHLIQCLSDKKALVRSIACWTLSRYAHWVVSQPPDMHLKPLMTELLKRILDGNKRVQEAACSAFATLEEEACTELVPYLSYILDTLVFAFGKYQHKNLLILYDAIGTLADSVGHHLNQPEYIQKLMPPLIQKWNELKDEDKDLFPLLECLSSVATALQSGFLPYCEPVYQRCVTLVQKTLAQAMMYTQHPEQYEAPDKDFMIVALDLLSGLAEGLGGHVEQLVARSNIMTLLFQCMQDSMPEVRQSSFALLGDLTKACFIHVKPCIAEFMPILGTNLNPEFISVCNNATWAIGEICMQMGAEMQPYVQMVLNNLVEIINRPNTPKTLLENTGRLTSPSAIPAITIGRLGYVCPQEVAPMLQQFIRPWCTSLRNIRDNEEKDSAFRGICMMIGVNPGGVVQDFIFFCDAVASWVSPKDDLRDMFYKILHGFKDQVGEDNWQQFSEQFPPLLKERLAAFYGV
B3: zinc ribbon domain containing 2, endogenous (protein, UniProt O60232 1-199)
chain: MALNGAEVDDFSWEPPTEAETKVLQARRERQDRISRLMGDYLLRGYRMLGETCADCGTILLQDKQRKIYCVACQELDSDVDKDNPALNAQAALSQAREHQLASASELPLGSRPAPQPPVPRPEHCEGAAAGLKAAQGPPAPAVPPNTDVMACTQTALLQKLTWASAELGSSTSLETSIQLCGLIRACAEALRSLQQLQH
B4: Nuclear Pore protein NUP133, endogenous (protein, UniProt Q8WUM0 1-1156)
chain: MFPAAPSPRTPGTGSRRGPLAGLGPGSTPRTASRKGLPLGSAVSSPVLFSPVGRRSSLSSRGTPTRMFPHHSITESVNYDVKTFGSSLPVKVMEALTLAEVDDQLTINIDEGGWACLVCKEKLIIWKIALSPITKLSVCKELQLPPSDFHWSADLVALSYSSPSGEAHSTQAVAVMVATREGSIRYWPSLAGEDTYTEAFVDSGGDKTYSFLTAVQGGSFILSSSGSQLIRLIPESSGKIHQHILPQGQGMLSGIGRKVSSLFGILSPSSDLTLSSVLWDRERSSFYSLTSSNISKWELDDSSEKHAYSWDINRALKENITDAIWGSESNYEAIKEGVNIRYLDLKQNCDGLVILAAAWHSADNPCLIYYSLITIEDNGCQMSDAVTVEVTQYNPPFQSEDLILCQLTVPNFSNQTAYLYNESAVYVCSTGTGKFSLPQEKIVFNAQGDSVLGAGACGGVPIIFSRNSGLVSITSRENVSILAEDLEGSLASSVAGPNSESMIFETTTKNETIAQEDKIKLLKAAFLQYCRKDLGHAQMVVDELFSSHSDLDSDSELDRAVTQISVDLMDDYPASDPRWAESVPEEAPGFSNTSLIILHQLEDKMKAHSFLMDFIHQVGLFGRLGSFPVRGTPMATRLLLCEHAEKLSAAIVLKNHHSRLSDLVNTAILIALNKREYEIPSNLTPADVFFREVSQVDTICECLLEHEEQVLRDAPMDSIEWAEVVINVNNILKDMLQAASHYRQNRNSLYRREESLEKEPEYVPWTATSGPGGIRTVIIRQHEIVLKVAYPQADSNLRNIVTEQLVALIDCFLDGYVSQLKSVDKSSNRERYDNLEMEYLQKRSDLLSPLLSLGQYLWAASLAEKYCDFDILVQMCEQTDNQSRLQRYMTQFADQNFSDFLFRWYLEKGKRGKLLSQPISQHGQLANFLQAHEHLSWLHEINSQELEKAHATLLGLANMETRYFAKKKTLLGLSKLAALASDFSEDMLQEKIEEMAEQERFLLHQETLPEQLLAEKQLNLSAMPVLTAPQLIGLYICEENRRANEYDFKKALDLLEYIDEEEDININDLKLEILCKALQRDNWSSSDGKDDPIEVSKDSIFVKILQKLLKDGIQLSEYLPEVKDLLQADQLGSLKSNPYFEFVLKANYEYYVQGQI

Protein sequences, listed by entry. Tags and fused reporters are not part of them.
UniProt Q92621: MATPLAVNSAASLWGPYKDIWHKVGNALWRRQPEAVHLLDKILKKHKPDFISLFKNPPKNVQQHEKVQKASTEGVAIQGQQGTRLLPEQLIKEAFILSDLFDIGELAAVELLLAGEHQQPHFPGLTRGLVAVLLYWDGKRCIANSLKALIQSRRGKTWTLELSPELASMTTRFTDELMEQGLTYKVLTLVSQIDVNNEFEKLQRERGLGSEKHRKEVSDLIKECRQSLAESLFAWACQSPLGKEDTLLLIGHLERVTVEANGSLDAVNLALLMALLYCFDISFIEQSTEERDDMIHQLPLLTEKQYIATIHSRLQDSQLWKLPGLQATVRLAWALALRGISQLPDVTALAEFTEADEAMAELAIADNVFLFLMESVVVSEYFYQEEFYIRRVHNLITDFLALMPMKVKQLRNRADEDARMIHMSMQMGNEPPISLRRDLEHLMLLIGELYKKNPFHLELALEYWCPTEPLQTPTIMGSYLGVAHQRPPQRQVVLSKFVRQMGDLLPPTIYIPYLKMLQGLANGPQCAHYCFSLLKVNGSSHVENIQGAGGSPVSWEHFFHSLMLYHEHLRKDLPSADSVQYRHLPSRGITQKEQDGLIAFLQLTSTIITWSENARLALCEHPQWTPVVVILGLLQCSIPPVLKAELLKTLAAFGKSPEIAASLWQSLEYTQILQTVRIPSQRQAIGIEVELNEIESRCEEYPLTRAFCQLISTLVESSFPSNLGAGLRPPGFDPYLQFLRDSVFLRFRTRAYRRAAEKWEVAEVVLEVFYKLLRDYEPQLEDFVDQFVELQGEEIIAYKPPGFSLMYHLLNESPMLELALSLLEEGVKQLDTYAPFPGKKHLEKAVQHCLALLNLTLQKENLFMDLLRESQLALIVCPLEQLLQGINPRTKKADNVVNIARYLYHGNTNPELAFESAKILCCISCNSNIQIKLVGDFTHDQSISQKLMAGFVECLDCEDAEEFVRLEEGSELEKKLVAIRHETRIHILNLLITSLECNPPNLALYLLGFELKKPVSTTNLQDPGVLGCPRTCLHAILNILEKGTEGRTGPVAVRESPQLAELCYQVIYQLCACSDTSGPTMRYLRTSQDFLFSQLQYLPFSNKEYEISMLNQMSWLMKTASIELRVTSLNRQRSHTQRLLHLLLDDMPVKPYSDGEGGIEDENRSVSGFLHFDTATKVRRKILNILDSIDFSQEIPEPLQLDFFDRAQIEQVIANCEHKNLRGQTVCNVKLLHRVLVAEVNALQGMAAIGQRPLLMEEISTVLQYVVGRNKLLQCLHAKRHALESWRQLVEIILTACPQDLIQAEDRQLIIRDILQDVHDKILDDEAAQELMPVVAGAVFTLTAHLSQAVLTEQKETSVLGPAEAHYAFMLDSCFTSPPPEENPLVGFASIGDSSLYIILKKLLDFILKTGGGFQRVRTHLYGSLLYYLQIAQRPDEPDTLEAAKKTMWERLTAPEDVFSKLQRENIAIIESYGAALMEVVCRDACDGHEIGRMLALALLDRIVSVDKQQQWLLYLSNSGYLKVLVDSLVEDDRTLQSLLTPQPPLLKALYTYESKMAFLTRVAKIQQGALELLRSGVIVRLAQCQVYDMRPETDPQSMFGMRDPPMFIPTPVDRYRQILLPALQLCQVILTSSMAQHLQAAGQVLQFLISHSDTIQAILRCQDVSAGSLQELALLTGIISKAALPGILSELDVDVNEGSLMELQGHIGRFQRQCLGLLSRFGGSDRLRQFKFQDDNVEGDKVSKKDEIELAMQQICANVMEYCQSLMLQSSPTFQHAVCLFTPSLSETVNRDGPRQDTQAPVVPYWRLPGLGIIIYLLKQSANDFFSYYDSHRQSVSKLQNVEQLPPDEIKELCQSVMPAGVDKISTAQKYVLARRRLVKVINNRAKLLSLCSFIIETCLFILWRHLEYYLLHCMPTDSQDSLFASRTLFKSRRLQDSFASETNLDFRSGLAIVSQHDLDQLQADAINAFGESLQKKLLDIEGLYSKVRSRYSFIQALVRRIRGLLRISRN

target: T1, HA-MST2 (UniProt Q13188); test: affinity purification with mass spectrometry; Figure 4A; MST2 complexes immunopurified from detergent-soluble and detergent-insoluble fractions of cells with or without co-expressed TRIM69A (WT or catalytically-inactive mutant); on-bead trypsin digestion, LC/MS/MS
T1 sequence: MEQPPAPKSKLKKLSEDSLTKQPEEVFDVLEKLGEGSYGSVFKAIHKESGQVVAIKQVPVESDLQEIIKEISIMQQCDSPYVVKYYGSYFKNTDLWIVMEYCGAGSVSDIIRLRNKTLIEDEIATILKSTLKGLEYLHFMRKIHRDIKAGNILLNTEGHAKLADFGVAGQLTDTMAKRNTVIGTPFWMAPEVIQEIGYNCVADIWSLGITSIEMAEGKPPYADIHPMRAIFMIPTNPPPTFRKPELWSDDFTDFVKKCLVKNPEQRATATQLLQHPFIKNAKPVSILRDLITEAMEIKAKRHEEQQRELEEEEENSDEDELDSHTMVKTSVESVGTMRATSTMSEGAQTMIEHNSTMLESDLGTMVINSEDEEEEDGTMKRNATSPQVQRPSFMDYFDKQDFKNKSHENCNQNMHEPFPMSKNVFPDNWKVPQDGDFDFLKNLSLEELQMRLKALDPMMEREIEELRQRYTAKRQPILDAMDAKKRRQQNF

binding, binds:
B1
B2
B3

target: T2, HA-TRIM69A (UniProt Q86WT6); test: affinity purification with mass spectrometry; anti-HA immunopurification of HA-TRIM69A and HA-TRIM69B complexes from detergent-soluble and detergent-insoluble (DNAse, sonication) extracts of adenovirus-transduced H1299 cells; empty adenovirus vector as control; on-bead trypsin digestion, LC/MS/MS
T2 sequence: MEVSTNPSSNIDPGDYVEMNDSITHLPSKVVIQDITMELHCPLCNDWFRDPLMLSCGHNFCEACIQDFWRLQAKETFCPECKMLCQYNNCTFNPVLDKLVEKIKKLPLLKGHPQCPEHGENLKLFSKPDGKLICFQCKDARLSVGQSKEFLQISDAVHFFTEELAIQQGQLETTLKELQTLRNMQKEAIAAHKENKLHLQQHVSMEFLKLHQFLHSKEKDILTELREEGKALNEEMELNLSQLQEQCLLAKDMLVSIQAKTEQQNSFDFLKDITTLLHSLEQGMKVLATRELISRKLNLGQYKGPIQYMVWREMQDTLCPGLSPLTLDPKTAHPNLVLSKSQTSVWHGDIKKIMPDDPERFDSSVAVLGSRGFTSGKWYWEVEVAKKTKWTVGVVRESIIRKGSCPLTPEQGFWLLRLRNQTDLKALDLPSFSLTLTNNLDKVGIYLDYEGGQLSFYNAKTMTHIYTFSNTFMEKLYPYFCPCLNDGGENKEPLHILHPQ

binding, binds:
Nuclear Pore protein NUP205, endogenous (from UniProt Q92621 1-2012)
Dynein Cytoplasmic 1 Heavy Chain 1 (DYNC1H1), endogenous (from UniProt Q14204 1-4646)
B4

— article PMC10602929
